According to patent publication US20090304707A1:
Results are given in words; binding and its absence hold for the method and conditions named. Some results given as binding are weak or reduced against the parent protein; the word gives no strength.

Amino acid sequences for entries named in this document (tags omitted). Residues count along the entry.
UniProt P15655, residues 10-154: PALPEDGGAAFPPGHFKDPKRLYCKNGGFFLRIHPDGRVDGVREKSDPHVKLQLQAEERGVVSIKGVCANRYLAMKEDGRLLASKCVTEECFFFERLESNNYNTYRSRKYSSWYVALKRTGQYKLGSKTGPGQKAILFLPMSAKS
UniProt P09038, residues 134-288: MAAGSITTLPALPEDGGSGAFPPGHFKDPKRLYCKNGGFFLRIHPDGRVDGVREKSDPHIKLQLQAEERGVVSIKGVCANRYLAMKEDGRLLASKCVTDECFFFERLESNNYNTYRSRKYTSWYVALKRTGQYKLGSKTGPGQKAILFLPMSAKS

B1: GAL-F2 anti-FGF2 mAb (mouse monoclonal antibody, hybridoma ATCC PTA-8864) (antibody, V domains shown)
VH: EVHLQQSGPELVKPGASVKMSCKASGYTFTNYVINWVKQKPGQGLEWIGYNDPYNDVSKYNEKFKGKATLTSDKSSSTAYMELSSLTSEDSAVYYCAKEGGGKYVYAMDSWGQGTSVTVSS
VL: SIVMTQTPKFLLVSAGDRVTMTCKASQSVSSDVGWYQQKPGQSPKLLIYSGSNRYSGVPDRFTGSGYGTDFTFTISTVQAEDLAVYFCQQDYYSPWTFGGGTKLEIK
B2: HuGAL-F2 (humanized GAL-F2 mAb) (antibody, human IgG1, kappa, V domains shown)
VH: EVQLVQSGAEVKKPGSSVKVSCKASGYTFTNYVINWVRQAPGQGLEWIGYNDPYNDVSKYNEKFKGRATITSDKSTSTAYMELSSLRSEDTAVYYCAKEGGGKYVYAMDSWGQGTTVTVSS
VL: DIQMTQSPSSLSASVGDRVTITCKASQSVSSDVGWYQQKPGKAPKLLIYSGSNRYSGVPSRFSGSGSGTDFTLTISSLQPEDFATYYCQQDYYSPWTFGQGTKVEIKR
B3: ChGAL-F2 (mouse-human chimeric GAL-F2 mAb) (antibody, V domains shown)
VH: B1 VH
VL: B1 VL

Assays:
mouse FGF2 (mouse) = mouse FGF2 (mouse) (UniProt P15655); experiment: FGF2 binding ELISA, FGF2 captured on heparin-coated wells (FIG. 1)
[1] = biological target: human basic fibroblast growth factor (FGF2) (human) (UniProt P09038); experiment: as above
[2] = biological target: human basic fibroblast growth factor (FGF2) (human) (UniProt P09038); experiment: competitive binding ELISA, unlabelled GAL-F2 against biotinylated GAL-F2 on heparin-captured FGF2 (FIG. 3)
[3] = biological target: human basic fibroblast growth factor (FGF2) (human) (UniProt P09038); experiment: competitive binding ELISA, competitor biotinylated GAL-F2, heparin-captured human FGF2 (FIG. 12)

Binder | binding (mouse FGF2 (mouse)) | binding [1] | binding [2] | binding [3]
B1 | binds | binds | binds | 
B2 |  |  |  | binds
B3 |  |  |  | binds
